# US8426631B2, “Fungicidal compounds, method for the production thereof, and use thereof to combat damaging fungi, and agents comprising the same” (BASF SE, priority 2007, dated 2013)
# Some entries share one result that the patent states for a list of compounds.
# Experiments:
# Botrytis cinerea [1] = assay: Microtiter test, activity against the gray mold pathogen Botrytis cinerea; format: cell-based; settings: 125 ppm; growth relative to active compound-free control (100%); 405 nm, day 7 after inoculation
# Septoria tritici = assay: Microtiter test, activity against the Septoria leaf spot pathogen Septoria tritici; format: cell-based; settings: 125 ppm; growth relative to active compound-free control (100%); 405 nm, day 7 after inoculation
# Puccinia recondita [2] = assay: Greenhouse test, brown rust of wheat caused by Puccinia recondita, protective application; format: in vivo; settings: 600 ppm; wheat seedlings, protective spray 1 day before inoculation; untreated plants 80 to 90% infected
# Puccinia recondita [3] = assay: Greenhouse test, brown rust of wheat caused by Puccinia recondita, curative application; format: in vivo; settings: 600 ppm; wheat seedlings, curative spray the day after inoculation; untreated plants 80 to 90% infected
# Botrytis cinerea [4] = assay: Greenhouse test, gray mold on bell pepper leaves caused by Botrytis cinerea, 7 days protective application; format: in vivo; settings: 250 ppm; bell pepper seedlings, inoculated 7 days after spraying; read after 5 days; untreated 80 to 90% infected
# [5] = tested on: Erysiphe [syn. Blumeria] graminis f. sp. tritici; assay: Greenhouse test, mildew of wheat caused by Erysiphe [syn. Blumeria] graminis f. sp. tritici; format: in vivo; settings: 300 ppm; wheat seedlings, protective; read after 7 days; untreated 80 to 90% infected
# Phakopsora pachyrhizi = assay: Greenhouse test, curative activity against soybean rust caused by Phakopsora pachyrhizi; format: in vivo; settings: 600 ppm, soybean seedlings, read after 14 days, untreated 80 to 90% infected
Compound,relative growth of the pathogen (Botrytis cinerea [1]),relative growth of the pathogen (Septoria tritici),infection (rust fungus development on the leaves) (Puccinia recondita [2]),infection of the leaf area (Puccinia recondita [3]),infection (fungal infection on the leaves) (Botrytis cinerea [4]),infection of the entire leaf area [5],infection (rust fungus development on the leaves) (Phakopsora pachyrhizi)
"CCN(C)C=Nc1cc(C)c(OCC(COc2ccc(Cl)c(Cl)c2)=NOC)cc1C [I-9, N′-(4-{3-(3,4-dichlorophenoxy)-2-[methoxyimino]propoxy}-2,5-dimethylphenyl)-N-ethyl-N-methylformamidine]",at most 10%,at most 10%,at most 15%,at most 15%,–,–,–
"CCN(C)C=Nc1cc(C)c(OC(C)C(=NOC)c2ccc(Cl)c(Cl)c2)cc1C (centres unmarked) [I-97, N′-(4-{2-(3,4-dichlorophenyl)-2-[methoxyimino]-1-methyl-ethoxy}-2,5-dimethylphenyl)-N-ethyl-N-methylformamidine]",at most 10%,at most 10%,at most 15%,at most 15%,at most 15%,at most 15%,at most 15%
